In publication doi:10.1101/2025.02.10.637372 one finds binding data, which are given here for 1 substance.

Chains of the proteins cited; added tags and fusions are not shown.
UniProt Q9UK61: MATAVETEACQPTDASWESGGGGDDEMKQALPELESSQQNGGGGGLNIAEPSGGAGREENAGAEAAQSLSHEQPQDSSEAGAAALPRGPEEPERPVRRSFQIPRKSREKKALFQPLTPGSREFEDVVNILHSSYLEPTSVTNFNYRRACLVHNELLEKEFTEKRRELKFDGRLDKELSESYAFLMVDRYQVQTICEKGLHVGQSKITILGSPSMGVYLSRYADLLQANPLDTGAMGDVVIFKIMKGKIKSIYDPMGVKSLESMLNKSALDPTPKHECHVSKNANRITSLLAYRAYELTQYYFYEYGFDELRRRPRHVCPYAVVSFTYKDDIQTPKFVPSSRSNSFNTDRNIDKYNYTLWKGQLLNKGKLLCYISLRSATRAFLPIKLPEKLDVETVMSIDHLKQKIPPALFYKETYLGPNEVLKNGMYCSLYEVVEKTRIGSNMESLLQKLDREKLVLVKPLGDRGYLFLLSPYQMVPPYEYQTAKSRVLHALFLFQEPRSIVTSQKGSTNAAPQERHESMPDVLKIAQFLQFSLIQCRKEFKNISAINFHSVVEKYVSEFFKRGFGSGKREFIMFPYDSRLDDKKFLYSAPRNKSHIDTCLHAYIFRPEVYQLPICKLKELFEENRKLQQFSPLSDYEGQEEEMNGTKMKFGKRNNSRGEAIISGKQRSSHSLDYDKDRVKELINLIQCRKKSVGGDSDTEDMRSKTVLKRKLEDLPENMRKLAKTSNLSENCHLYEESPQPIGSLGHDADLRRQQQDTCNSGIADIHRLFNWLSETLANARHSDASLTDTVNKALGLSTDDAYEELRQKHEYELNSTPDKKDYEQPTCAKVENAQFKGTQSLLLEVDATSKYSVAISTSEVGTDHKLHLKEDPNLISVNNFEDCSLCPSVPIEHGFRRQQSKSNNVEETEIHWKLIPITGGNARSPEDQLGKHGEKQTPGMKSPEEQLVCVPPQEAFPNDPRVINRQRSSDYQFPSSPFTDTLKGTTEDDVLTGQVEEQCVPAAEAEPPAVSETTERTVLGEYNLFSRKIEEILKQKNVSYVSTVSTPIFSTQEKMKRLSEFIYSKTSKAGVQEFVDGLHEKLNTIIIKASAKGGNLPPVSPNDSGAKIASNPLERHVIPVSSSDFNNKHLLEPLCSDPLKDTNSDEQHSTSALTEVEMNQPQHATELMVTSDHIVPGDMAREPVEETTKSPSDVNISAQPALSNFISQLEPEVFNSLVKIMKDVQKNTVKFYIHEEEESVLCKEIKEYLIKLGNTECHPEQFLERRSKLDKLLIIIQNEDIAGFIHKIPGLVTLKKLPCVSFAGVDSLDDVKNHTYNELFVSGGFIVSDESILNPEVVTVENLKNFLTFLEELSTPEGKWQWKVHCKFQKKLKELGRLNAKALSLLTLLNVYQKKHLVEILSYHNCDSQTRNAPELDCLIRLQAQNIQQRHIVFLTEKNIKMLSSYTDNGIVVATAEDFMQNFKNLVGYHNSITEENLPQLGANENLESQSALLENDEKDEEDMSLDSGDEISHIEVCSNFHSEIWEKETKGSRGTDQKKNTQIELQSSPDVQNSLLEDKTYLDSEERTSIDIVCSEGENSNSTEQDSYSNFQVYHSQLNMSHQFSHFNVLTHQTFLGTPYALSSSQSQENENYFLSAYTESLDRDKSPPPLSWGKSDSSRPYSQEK
UniProt Q99549: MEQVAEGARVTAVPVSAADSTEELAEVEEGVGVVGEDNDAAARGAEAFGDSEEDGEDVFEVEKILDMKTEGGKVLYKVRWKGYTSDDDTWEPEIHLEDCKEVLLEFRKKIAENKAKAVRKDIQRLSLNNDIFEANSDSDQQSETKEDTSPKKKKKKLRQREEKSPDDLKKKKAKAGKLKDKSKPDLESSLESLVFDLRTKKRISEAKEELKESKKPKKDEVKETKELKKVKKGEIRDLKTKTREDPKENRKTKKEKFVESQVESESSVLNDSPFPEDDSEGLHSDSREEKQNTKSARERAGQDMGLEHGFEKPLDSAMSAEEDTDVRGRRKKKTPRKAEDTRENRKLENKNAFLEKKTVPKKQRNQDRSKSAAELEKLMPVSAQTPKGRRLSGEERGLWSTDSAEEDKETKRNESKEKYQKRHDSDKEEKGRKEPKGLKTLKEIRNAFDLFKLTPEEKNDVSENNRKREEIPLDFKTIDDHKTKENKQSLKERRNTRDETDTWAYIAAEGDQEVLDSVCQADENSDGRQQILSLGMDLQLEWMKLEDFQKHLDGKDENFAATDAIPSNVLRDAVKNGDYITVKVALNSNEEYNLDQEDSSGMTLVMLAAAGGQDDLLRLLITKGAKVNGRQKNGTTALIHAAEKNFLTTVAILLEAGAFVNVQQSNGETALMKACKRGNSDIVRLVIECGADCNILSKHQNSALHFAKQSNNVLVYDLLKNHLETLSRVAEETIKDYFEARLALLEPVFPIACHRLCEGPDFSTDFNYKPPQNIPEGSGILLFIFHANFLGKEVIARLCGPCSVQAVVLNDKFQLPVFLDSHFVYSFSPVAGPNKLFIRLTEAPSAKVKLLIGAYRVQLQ

Results are given in words; binding and its absence hold for the method and conditions named. In cells and extracts the contact can be indirect. Some binding calls cover weakened binding; strength is not graded here.

In test [1] the target is transcriptional activation suppressor (TASOR) (human (endogenous in H1299)) (UniProt Q9UK61). Briefly: co-IP.
Test [2] concerns the target M-phase phosphoprotein 8 (MPP8) (human (endogenous in H1299)) (UniProt Q99549). The test can be described thus: co-IP.

On to “HAdV early protein E1B-55K (from UniProt P03243 1-496)”, for which the binding result in test [1] and in test [2] was “binds” throughout.
